Source: paper doi:10.1101/2023.02.09.527857
Positions count from the first letter of the chain named. Where two headings read alike, the source gives them in different places. No constants are given. Whether binding was seen depends on the method and setting. Binding seen in cells or lysates may run through a third protein. Some results given as binding are weak or reduced against the parent protein; the word gives no strength. Sequences can lack the tags named with a protein. Values belong to the molecule of their own block, whether it stands above or below them.

Amino acid sequences for entries named in this document (tags omitted).
UniProt P63104: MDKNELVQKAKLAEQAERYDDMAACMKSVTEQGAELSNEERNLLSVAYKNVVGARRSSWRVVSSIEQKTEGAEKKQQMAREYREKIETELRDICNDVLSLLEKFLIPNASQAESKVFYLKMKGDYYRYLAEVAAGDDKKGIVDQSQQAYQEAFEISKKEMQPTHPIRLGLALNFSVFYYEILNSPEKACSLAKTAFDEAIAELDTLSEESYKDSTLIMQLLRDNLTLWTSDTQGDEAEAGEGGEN

Columns and labels:
Experiment in all cases: co-IP
[1] = target: T1, FLAG-tagged wild-type SMAUG1 (SMAUG1-HisTEV2xFLAG) (human) (UniProt Q9UPU9)
T1 sequence: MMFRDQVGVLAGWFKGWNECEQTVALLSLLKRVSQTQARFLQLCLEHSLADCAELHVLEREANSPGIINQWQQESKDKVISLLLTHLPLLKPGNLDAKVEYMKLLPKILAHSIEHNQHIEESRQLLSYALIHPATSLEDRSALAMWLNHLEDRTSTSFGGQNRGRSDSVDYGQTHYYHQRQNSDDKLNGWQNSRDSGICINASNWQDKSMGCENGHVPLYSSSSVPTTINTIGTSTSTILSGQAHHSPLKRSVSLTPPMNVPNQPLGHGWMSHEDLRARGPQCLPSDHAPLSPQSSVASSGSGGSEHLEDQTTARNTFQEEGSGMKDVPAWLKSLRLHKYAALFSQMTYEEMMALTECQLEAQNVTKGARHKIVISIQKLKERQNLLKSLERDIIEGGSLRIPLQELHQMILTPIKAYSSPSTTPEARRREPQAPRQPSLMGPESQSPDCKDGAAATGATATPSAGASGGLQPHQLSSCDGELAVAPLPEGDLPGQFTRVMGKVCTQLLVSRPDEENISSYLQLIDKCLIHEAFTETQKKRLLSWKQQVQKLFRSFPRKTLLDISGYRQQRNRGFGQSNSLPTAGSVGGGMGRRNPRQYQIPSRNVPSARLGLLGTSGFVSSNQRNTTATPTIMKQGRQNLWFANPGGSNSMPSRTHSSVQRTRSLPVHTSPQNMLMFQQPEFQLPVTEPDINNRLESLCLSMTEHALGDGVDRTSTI

[2] = target: T2, myc-tagged 14-3-3γ (human) (UniProt P61981)
T2 sequence: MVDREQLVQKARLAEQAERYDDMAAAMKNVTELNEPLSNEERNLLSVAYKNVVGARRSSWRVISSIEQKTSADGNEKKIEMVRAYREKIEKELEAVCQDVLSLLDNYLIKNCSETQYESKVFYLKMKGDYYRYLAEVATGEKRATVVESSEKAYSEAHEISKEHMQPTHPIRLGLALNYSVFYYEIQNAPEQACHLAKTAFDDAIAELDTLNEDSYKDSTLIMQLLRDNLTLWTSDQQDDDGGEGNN

[3] = target: T1, FLAG-tagged wild-type SMAUG1 (SMAUG1-HisTEV2xFLAG) (human); remark: listed apart in the source

Molecule: 14-3-3ζ (detected with anti-14-3-3ζ in the FLAG-SMAUG1 precipitate) (from UniProt P63104 1-245)
- binding [1]: binds

B1: FLAG-tagged wild-type SMAUG1 (SMAUG1-HisTEV2xFLAG) (protein, UniProt Q9UPU9-1 1-718)
chain: T1 sequence
- binding [2]: binds

B3: SMAUG1-FLAG S168/254/580/665A (quad S/A mutant) (protein, UniProt Q9UPU9-1 1-718)
chain: T1 sequence with S168A, S254A, S580A, S665A
- binding [2]: no binding

B5: 14-3-3η (detected with anti-14-3-3η in the FLAG-SMAUG1 precipitate) (protein, UniProt Q04917 1-246)
chain: MGDREQLLQRARLAEQAERYDDMASAMKAVTELNEPLSNEDRNLLSVAYKNVVGARRSSWRVISSIEQKTMADGNEKKLEKVKAYREKIEKELETVCNDVLSLLDKFLIKNCNDFQYESKVFYLKMKGDYYRYLAEVASGEKKNSVVEASEAAYKEAFEISKEQMQPTHPIRLGLALNFSVFYYEIQNAPEQACLLAKQAFDDAIAELDTLNEDSYKDSTLIMQLLRDNLTLWTSDQQDEEAGEGN
- binding [3]: binds

The next lines start with the values.

- binding [2]: no binding
B2: SMAUG1-FLAG S254/580/665A (protein, UniProt Q9UPU9-1 1-718)
chain: T1 sequence with S254A, S580A, S665A

- binding [2]: no binding
B4: SMAUG1-FLAG S168/254/580A (protein, UniProt Q9UPU9-1 1-718)
chain: T1 sequence with S168A, S254A, S580A
